This is one part of the list. Most values lie at the level of the controls, where differences are scatter.
What follows are targets tested with Cc1nc(Nc2ncc(C(=O)Nc3c(C)cccc3Cl)s2)cc(N2CCN(CCO)CC2)n1 [dasatinib] (assay: log2 fold change of tryptic peptide abundance, ligand vs vehicle (limited proteolysis) (log2 ratio); higher = more trypsin-susceptible (destabilized)). Settings: ligand concentration: 5 uM; sample: K562 cleared lysate.

By UniProt entry, the sequences of proteins in these tests, tags left out. Where a name states a change or a piece, a line headed by the entry shows the natural chain unless it says otherwise.
UniProt Q96L34: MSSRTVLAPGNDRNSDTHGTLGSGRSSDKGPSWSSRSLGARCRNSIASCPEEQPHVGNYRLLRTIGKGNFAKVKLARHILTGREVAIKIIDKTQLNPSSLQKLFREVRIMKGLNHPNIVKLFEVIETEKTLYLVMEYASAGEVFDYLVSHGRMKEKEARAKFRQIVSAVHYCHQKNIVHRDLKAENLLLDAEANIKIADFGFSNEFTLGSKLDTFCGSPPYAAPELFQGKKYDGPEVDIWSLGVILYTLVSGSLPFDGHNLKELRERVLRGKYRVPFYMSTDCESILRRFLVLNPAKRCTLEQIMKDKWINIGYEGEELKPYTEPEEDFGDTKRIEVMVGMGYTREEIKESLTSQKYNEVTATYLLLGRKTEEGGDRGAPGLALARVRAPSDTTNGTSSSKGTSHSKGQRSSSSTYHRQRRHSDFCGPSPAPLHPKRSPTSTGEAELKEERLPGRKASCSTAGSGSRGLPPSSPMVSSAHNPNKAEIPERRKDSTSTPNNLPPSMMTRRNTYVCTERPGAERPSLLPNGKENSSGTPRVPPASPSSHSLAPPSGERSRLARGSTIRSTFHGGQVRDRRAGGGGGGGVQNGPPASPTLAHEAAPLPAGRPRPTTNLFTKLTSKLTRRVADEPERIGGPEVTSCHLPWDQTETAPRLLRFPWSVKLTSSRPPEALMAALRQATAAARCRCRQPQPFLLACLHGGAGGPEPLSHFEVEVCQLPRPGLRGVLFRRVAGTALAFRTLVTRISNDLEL
UniProt Q96GD0: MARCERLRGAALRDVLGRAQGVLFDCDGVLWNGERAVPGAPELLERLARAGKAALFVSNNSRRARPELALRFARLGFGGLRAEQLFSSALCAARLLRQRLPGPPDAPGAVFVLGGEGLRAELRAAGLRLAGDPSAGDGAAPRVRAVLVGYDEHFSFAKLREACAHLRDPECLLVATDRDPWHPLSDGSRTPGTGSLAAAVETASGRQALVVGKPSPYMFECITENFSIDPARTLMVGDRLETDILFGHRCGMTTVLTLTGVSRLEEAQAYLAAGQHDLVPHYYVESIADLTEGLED
UniProt Q96KC2: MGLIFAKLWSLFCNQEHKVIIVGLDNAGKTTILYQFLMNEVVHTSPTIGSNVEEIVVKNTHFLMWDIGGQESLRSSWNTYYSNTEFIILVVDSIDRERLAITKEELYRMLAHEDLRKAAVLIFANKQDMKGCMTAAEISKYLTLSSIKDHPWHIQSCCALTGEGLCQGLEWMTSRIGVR
UniProt Q96G23: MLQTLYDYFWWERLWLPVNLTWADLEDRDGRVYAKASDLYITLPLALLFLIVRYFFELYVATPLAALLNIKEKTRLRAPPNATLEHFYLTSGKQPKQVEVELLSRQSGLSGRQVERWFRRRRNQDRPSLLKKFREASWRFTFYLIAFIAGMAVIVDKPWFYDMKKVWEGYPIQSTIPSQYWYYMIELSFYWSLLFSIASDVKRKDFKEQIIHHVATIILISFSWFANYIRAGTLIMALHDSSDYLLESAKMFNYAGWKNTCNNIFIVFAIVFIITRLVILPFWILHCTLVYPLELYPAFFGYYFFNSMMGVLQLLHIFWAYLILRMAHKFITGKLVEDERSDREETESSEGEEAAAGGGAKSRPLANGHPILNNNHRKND
UniProt Q96GE4: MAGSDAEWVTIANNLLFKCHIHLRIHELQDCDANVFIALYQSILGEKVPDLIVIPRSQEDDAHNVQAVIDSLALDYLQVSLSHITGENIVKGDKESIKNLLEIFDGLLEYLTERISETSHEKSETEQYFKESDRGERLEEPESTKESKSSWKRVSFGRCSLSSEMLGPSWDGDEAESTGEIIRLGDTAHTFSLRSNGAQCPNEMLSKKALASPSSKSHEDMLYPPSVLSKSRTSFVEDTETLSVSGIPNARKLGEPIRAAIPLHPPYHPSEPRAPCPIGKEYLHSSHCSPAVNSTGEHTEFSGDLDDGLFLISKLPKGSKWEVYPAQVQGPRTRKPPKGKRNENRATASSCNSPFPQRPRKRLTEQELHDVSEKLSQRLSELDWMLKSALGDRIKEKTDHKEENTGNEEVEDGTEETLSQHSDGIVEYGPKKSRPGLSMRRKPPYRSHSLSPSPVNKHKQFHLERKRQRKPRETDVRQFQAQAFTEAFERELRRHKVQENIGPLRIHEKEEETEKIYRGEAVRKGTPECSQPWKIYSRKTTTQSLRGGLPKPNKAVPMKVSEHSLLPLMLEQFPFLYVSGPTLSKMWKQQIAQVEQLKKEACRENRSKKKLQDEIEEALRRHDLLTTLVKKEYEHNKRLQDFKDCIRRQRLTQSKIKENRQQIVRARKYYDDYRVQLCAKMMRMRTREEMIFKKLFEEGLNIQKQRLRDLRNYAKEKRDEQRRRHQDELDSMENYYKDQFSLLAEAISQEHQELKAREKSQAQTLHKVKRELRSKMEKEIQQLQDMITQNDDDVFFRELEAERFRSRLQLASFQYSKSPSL
UniProt Q96I25: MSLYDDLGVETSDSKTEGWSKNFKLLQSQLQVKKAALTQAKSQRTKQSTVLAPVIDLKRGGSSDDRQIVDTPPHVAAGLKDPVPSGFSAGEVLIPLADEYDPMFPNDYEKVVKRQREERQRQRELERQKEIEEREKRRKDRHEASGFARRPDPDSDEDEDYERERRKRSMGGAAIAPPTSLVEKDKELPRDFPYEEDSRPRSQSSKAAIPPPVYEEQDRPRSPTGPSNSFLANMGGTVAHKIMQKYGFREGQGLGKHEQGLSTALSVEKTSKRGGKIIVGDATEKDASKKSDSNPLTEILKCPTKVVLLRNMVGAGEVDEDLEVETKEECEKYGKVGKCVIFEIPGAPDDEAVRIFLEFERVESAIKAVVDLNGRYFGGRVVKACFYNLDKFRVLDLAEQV
UniProt Q96GQ5: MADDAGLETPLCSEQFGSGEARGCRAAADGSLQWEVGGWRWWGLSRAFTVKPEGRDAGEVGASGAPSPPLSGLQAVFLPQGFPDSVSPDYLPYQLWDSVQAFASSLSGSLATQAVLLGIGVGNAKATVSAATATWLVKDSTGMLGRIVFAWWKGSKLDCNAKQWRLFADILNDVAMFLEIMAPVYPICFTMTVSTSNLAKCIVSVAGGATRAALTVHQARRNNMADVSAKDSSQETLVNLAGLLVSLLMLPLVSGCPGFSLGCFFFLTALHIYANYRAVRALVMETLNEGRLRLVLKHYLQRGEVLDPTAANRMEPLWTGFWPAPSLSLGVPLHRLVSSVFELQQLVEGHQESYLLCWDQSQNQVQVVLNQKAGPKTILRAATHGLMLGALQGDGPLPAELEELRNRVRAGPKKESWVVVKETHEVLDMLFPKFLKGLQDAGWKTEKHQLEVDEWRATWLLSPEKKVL
UniProt Q96P11: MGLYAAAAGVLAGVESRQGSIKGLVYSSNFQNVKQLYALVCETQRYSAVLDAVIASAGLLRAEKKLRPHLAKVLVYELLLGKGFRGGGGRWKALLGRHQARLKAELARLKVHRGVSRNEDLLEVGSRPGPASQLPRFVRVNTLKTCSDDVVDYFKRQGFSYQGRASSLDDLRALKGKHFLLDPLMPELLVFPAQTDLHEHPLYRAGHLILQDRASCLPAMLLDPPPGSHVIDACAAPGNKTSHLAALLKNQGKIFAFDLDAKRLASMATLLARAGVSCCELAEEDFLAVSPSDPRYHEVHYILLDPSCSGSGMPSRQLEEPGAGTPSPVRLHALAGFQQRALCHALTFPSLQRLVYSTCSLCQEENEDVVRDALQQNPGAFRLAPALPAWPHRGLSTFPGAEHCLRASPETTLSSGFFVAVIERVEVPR
UniProt Q96J77: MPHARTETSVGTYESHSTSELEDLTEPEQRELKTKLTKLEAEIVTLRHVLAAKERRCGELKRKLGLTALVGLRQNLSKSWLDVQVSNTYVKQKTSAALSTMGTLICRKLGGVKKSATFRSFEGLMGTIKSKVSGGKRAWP
UniProt Q96GD4, whole entry: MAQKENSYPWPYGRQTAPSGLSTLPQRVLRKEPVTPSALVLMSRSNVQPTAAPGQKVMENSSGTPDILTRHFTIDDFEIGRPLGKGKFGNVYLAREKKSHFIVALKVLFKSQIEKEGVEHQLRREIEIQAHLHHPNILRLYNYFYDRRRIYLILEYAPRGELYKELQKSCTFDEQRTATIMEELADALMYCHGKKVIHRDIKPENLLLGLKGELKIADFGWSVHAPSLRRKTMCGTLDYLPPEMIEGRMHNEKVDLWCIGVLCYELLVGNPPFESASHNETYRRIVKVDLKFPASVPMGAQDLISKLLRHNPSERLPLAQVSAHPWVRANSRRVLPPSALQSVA
UniProt Q96II8: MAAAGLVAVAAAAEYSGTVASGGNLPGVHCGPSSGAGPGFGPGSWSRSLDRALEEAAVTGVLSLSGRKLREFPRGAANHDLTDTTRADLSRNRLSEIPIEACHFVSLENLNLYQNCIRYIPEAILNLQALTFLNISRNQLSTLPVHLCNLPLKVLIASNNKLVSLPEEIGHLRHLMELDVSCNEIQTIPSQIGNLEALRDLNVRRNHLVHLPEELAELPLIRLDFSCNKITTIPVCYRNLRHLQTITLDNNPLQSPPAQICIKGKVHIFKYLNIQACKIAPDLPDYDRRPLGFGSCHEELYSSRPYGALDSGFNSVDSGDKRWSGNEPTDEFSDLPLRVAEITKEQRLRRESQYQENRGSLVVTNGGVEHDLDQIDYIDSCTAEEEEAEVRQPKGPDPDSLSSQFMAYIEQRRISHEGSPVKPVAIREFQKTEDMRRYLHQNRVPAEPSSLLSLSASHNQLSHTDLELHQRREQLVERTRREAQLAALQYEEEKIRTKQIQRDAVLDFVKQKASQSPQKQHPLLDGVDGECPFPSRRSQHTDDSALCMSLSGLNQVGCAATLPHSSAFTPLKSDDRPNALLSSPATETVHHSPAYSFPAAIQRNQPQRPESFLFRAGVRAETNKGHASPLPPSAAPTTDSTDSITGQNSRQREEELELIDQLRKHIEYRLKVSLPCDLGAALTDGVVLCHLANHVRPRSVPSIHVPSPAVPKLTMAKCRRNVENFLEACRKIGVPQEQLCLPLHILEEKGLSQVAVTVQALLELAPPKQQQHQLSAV
UniProt Q96ME7: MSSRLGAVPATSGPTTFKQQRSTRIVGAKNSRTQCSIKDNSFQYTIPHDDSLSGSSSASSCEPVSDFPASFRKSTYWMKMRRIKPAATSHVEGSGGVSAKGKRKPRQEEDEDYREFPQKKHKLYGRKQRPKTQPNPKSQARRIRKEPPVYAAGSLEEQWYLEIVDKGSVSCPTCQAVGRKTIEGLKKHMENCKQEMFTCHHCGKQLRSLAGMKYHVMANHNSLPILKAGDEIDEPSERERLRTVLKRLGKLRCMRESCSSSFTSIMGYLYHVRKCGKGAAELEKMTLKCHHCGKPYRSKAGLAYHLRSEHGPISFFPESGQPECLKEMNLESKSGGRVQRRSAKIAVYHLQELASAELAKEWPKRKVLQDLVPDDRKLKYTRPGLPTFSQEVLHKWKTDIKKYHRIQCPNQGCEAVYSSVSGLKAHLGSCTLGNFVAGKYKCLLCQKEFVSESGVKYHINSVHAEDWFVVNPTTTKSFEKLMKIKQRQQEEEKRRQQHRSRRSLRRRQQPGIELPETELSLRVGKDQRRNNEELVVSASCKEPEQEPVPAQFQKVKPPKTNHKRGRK
UniProt Q96H55, whole entry: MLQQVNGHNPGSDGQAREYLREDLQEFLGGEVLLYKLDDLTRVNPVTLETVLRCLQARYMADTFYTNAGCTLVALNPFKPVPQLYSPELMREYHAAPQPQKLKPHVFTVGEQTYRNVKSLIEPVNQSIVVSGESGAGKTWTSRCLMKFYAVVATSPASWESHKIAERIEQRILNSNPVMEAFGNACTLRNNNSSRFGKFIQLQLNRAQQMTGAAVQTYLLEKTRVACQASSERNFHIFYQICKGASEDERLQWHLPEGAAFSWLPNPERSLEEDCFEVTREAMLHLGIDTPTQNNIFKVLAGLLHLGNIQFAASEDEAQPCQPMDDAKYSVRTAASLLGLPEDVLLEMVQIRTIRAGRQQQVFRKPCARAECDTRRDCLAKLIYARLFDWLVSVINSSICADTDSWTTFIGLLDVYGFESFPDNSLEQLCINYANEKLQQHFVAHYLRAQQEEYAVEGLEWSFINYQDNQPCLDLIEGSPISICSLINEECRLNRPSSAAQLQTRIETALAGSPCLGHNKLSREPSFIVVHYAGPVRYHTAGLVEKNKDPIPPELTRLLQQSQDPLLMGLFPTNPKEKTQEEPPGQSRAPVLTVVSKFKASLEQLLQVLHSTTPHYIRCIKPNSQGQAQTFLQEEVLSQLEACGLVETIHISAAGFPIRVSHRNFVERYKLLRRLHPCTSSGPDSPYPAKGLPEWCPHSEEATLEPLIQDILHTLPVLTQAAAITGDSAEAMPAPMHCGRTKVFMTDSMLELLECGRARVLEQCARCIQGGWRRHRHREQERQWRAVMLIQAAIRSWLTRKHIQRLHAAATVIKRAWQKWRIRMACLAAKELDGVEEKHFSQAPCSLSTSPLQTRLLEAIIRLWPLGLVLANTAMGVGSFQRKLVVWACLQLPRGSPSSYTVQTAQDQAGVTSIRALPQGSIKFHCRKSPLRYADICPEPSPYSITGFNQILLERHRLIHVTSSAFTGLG

| Target | log2 fold change |
| --- | --- |
| MARK4 (peptide sequence: NSDTHGTLGSGR, peptide start residue: 14) (UniProt Q96L34) | -0.775 |
| PDXP (peptide sequence: LAGDPSAGDGAAPR, peptide start residue: 129) (UniProt Q96GD0) | 0.263 |
| UniProt Q96M11 (peptide sequence: CDLANGVIPR, peptide start residue: 281) | 0.284 |
| UniProt Q96NB1 (peptide sequence: RKPMDDHLR, peptide start residue: 146) | -0.499 |
| UniProt Q96FV0 (peptide sequence: FLSLAGNQIR, peptide start residue: 92) | -0.294 |
| UniProt Q96KC2 (peptide sequence: AAVLIFANK, peptide start residue: 118) | -0.282 |
| CNRIP1 (peptide sequence: LLTGSSYK, peptide start residue: 40) (UniProt Q96F85) | -0.111 |
| UniProt Q96G23 (peptide sequence: SRPLANGHPILNNNHR, peptide start residue: 362) | -0.0347 |
| INTS4 (peptide sequence: HLTDTSHGVR, peptide start residue: 158) (UniProt Q96HW7) | -0.376 |
| UniProt Q96GE4 (peptide sequence: SNGAQCPNEMLSKK, peptide start residue: 195) | -0.691 |
| RBM17 (peptide sequence: IFLEFER, peptide start residue: 355) (UniProt Q96I25) | -0.259 |
| C16orf58 (peptide sequence: AFTVKPEGR, peptide start residue: 47) (UniProt Q96GQ5) | -0.336 |
| TOE1 (peptide sequence: TANFVAVDTELSGLGDRK, peptide start residue: 57) (UniProt Q96GM8) | -0.169 |
| NSUN5 (peptide sequence: YHEVHYILLDPSCSGSGMPSR, peptide start residue: 296) (UniProt Q96P11) | 0.547 |
| PPP1R10 (peptide sequence: STGLELETPSLVPVKK, peptide start residue: 210) (UniProt Q96QC0) | -0.138 |
| DDX27 (peptide sequence: TFTDHVMLFTQTKK, peptide start residue: 461) (UniProt Q96GQ7) | -0.417 |
| UniProt Q96J77 (peptide sequence: CGELKRK, peptide start residue: 57) | 0.326 |
| HIC2 (peptide sequence: QLLLQLNQQR, peptide start residue: 31) (UniProt Q96JB3) | -0.599 |
| UniProt Q96GD4 (peptide sequence: GKFGNVYLAR, peptide start residue: 142) | -0.269 |
| NARS2 (peptide sequence: FGSVPHGGFGMGFER, peptide start residue: 437) (UniProt Q96I59) | -0.377 |
| LRCH3 (peptide sequence: VAEITKEQR, peptide start residue: 339) (UniProt Q96II8) | -0.429 |
| SMG1 (peptide sequence: QVLEEIFFLKR, peptide start residue: 3015) (UniProt Q96Q15) | -0.706 |
| ALKBH3 (peptide sequence: ITMEPNPHWHPVLR, peptide start residue: 146) (UniProt Q96Q83) | 0.329 |
| NAP1L5 (peptide sequence: FDKEFQALEKK, peptide start residue: 98) (UniProt Q96NT1) | 0.159 |
| ZNF512 (peptide sequence: RIKPAATSHVEGSGGVSAK, peptide start residue: 82) (UniProt Q96ME7) | -0.288 |
| MYO19 (peptide sequence: YHTAGLVEK, peptide start residue: 538) (UniProt Q96H55) | -0.932 |
| OTUB1 (peptide sequence: FFEHFIEGGR, peptide start residue: 189) (UniProt Q96FW1) | -0.354 |
| UniProt Q96K17 (peptide sequence: LAEQFPR, peptide start residue: 116) | -0.0467 |
| METTL2A (peptide sequence: NNEDGPGLIMEEQHK, peptide start residue: 128) (UniProt Q96IZ6) | 0.363 |

Random excerpt: 2 entries already listed.

| Target | log2 fold change |
| --- | --- |
| NSUN5 (peptide sequence: YHEVHYILLDPSCSGSGMPSR, peptide start residue: 296) (UniProt Q96P11) | 0.547 |
| PDXP (peptide sequence: LAGDPSAGDGAAPR, peptide start residue: 129) (UniProt Q96GD0) | 0.263 |

Reference: the supplement of paper PMC12819154, “High-throughput peptide-centric local stability assay extends protein–ligand identification to membrane proteins, tissues and bacteria” (Nature Structural & Molecular Biology, 2025)
